Reference: PubChem BioAssay AID540256 (National Center for Advancing Translational Sciences (NCATS), 2011)
Among all 300,000 compounds or so, about 3,700 (1.2%) were called active. Inconclusive means that the source gave no clear call. Such entries were picked first, then a sample of the others. Calls come from the whole dose curve; tested in HEK293 cells. Where the call is inconclusive, the potency comes from a doubtful curve fit.

assay: qHTS for Inhibitors of binding or entry into cells for Lassa Virus; settings: Lassa virus pseudotype entry inhibition, cell reporter; activity change, negative = inhibition: at 37.9 µM (top of the series) unless noted; note: nearly all actives have a fitted effect of over 50% in size
% is set by controls: 0 for no effect and ±100 for the full control effect; potency is the fitted concentration of half-maximal effect.

With CCOC(=O)N1CCN(C(=O)CSCc2nc(-c3ccccc3C)oc2C)CC1 as the molecule, how does the Potency read?
The Potency was inconclusive: 32.6 µM [inhibitor, single point].

With Cc1cc(C)c(S(=O)(=O)N2CCCC(C(=O)NCCC3=CCCCC3)C2)c(C)c1 (stereo not given) as the molecule, how does the Potency read?
The Potency was inconclusive: 18.3 µM [inhibitor, single point].

With CCc1cccc(NC(=O)c2ccc(CNS(=O)(=O)c3ccc4c(c3)C(C)(C)C(=O)N4C)cc2)c1 as the molecule, how does the Potency read?
The Potency was inconclusive: 11.2 µM [inhibitor, partial curve, poor fit].

For O=S(=O)(c1ccc(F)cc1)N1CCN(c2nc(-c3cccnc3)nc3ccccc23)CC1, which Potency is on record?
The Potency was inconclusive: 22.4 µM [inhibitor, single point].

For CCN(CC)S(=O)(=O)c1cc(NC(=O)C(C)N2CCc3ccccc32)ccc1C (stereo not given), which Potency is on record?
The Potency was inconclusive: 5.62 µM [inhibitor, full curve, poor fit].

For CC1=C/C(=C/N(C)c2ccccc2)C(=O)S1, which Potency is on record?
Its Potency is inconclusive: 3.66 µM [activator, partial curve, poor fit].

Which Potency does the source give for NCCCC(=O)N1c2ccccc2Sc2ccc(Cl)cc21 here?
The Potency was active: 0.708 µM.

Which “activity change, negative = inhibition” value does the source give for O=C(O)C1C2C=CC(C2)C1C(=O)N1CCOCC1 (stereo not given) here?
Its value is inactive: 0.143%.

For CCN(CC)S(=O)(=O)c1cc(NC(=O)c2ccc(-n3cncn3)c([N+](=O)[O-])c2)ccc1C, which Potency is on record?
Its Potency is inconclusive: 22.4 µM [inhibitor, partial curve, poor fit].

With NC(=O)CNc1ncc(C(F)(F)F)cc1Cl as the molecule, how does the Potency read?
The Potency was inconclusive: 2 µM [activator, partial curve, poor fit].

For CCOc1ccc2c(-c3ccnc(Nc4cccc(C(F)(F)F)c4)n3)cnn2n1, which Potency is on record?
Its Potency is inconclusive: 31.5 µM [inhibitor, partial curve, poor fit].

With Cc1ccc(Nc2ncnc3c2cnn3C)c(C)c1 as the molecule, how does the Potency read?
Its Potency is inconclusive: 35.5 µM [inhibitor, single point].

Which Potency does the source give for COc1cccc(NC(=O)CCP(C)(=O)O)c1 here?
The Potency was inconclusive: 15.8 µM [activator, partial curve, poor fit].

For CCN(c1ccccc1)S(=O)(=O)c1ccc(N)c(OC)c1, which Potency is on record?
The Potency was inconclusive: 2.24 µM [inhibitor, partial curve, poor fit].

With Cc1[nH]c2ccccc2c1SCCNC(=O)c1ccccc1F as the molecule, how does the Potency read?
Its Potency is inconclusive: 0.562 µM [activator, full curve, poor fit].

Which Potency does the source give for O=C(N/N=C/c1cccs1)c1ccc2c(c1)OCO2 here?
Its Potency is inconclusive: 12.6 µM [inhibitor, partial curve, poor fit].

For COc1ccc2c(Cl)c(C(=O)N/N=C/c3ccncc3)sc2c1, which “activity change, negative = inhibition” value is on record?
Its value is inactive: -24.7%.

Which Potency does the source give for Cc1cccc2cc(/C=N/NC(=O)[C@H]3C[C@@H]3c3ccccc3)c(Cl)nc12 here?
The Potency was inconclusive: 1 µM [inhibitor, full curve, poor fit].

With CCC(Sc1nc2ccccc2c(=O)n1CCN1CCOCC1)C(=O)NCc1cccnc1 (stereo not given) as the molecule, how does the “activity change, negative = inhibition” value read?
Its value is inactive: 2.16%.

For Cc1c(C(=O)Nc2cccc(Cl)c2)oc2ccc(S(=O)(=O)N3CCC4(CC3)OCCO4)cc12, which Potency is on record?
Its Potency is inconclusive: 25.9 µM [inhibitor, single point].

Which “activity change, negative = inhibition” value does the source give for CCOC(=O)c1c(C)oc2c1c(C(c1cccnc1)N1CCCCC1)c(O)c1ccccc12 (stereo not given) here?
The value was inactive: 11.9%.

For Cc1cccc(NC(=O)CN2CCN(C(=O)c3ccc(-c4nc5ccccc5s4)o3)CC2)c1C, which Potency is on record?
The Potency was inconclusive: 11.2 µM [inhibitor, partial curve, poor fit].

Which Potency does the source give for Cc1ccc(S(=O)(=O)N2CCC(n3c(C)nc4cccnc43)CC2)c(C)c1 here?
The Potency was inconclusive: 3.55 µM [inhibitor, partial curve, poor fit].

Which Potency does the source give for CCOC(=O)CCc1c(C)nc(SCCCn2c(=O)[nH]c3ccccc32)c(C#N)c1C here?
The Potency was inconclusive: 32.6 µM [inhibitor, single point].

With CC(=O)N(CCC(c1ccccc1)c1ccco1)Cc1cccs1 (stereo not given) as the molecule, how does the Potency read?
The Potency was inconclusive: 28.2 µM [inhibitor, single point].

With Cc1ccc(C)c(-c2csc(N/N=C/c3ccco3)n2)c1 as the molecule, how does the Potency read?
Its Potency is active: 2 µM.

With Cc1ccnc(NS(=O)(=O)c2ccc(NC(=O)c3nc(SC(C)C)ncc3Cl)cc2)n1 as the molecule, how does the Potency read?
Its Potency is inconclusive: 35.5 µM [activator, single point].

For O=C1Nc2ccc(Br)cc2C1=C1CCCCC1, which Potency is on record?
The Potency was inconclusive: 35.5 µM [inhibitor, single point].

For COc1ccc2[nH]cc(CCCN3C(=O)c4ccccc4C3=O)c2c1, which Potency is on record?
Its Potency is active: 11.2 µM.

With O=S(=O)(Nc1ccc(Cc2ccncc2)cc1)c1ccc(Br)s1 as the molecule, how does the Potency read?
The Potency was inconclusive: 18.3 µM [inhibitor, single point].

For CC(C)(C)CC(C)(C)SSc1n[nH]c(=S)s1, which “activity change, negative = inhibition” value is on record?
The value was inactive: 30% [at 46.1 µM].

With COc1cc(OC)cc(-c2nc3cc(C)ccc3o2)c1 as the molecule, how does the Potency read?
The Potency was inconclusive: 3.26 µM [activator, partial curve].

With COc1ccc(Nc2nc(-c3ccc(OC)cc3)c(CCC(=O)O)s2)cc1 as the molecule, how does the “activity change, negative = inhibition” value read?
Its value is inactive: 5.3%.

Which “activity change, negative = inhibition” value does the source give for CCOCCCNCC(=O)NC1(C)C2CCC(C2)C1(C)C (stereo not given) here?
The value was inactive: 10.3%.

With COc1ccc(CCNC(=O)c2ccccc2C(=O)NCCc2ccc(OC)c(OC)c2)cc1OC as the molecule, how does the Potency read?
Its Potency is inconclusive: 2.82 µM [inhibitor, partial curve].

For CC(=O)c1ccc(N2CCN(CC(=O)Nc3ccccc3N3CCOCC3)CC2)cc1, which Potency is on record?
The Potency was inconclusive: 35.5 µM [inhibitor, single point].

Which “activity change, negative = inhibition” value does the source give for Cc1cc(NC(=O)CCC(=O)N(c2ccc(F)cc2)C(C(=O)NC2CCCC2)c2ccccc2)no1 (stereo not given) here?
Its value is inactive: -4.87%.

With CCOCCCn1c(=NC(=O)c2cccs2)c(C#N)cc2c(=O)n3ccccc3nc21 as the molecule, how does the “activity change, negative = inhibition” value read?
Its value is inactive: -20.4%.

Which Potency does the source give for O=C(NCc1ccccc1Cl)c1cc2cccc3c2n1CCS3 here?
Its Potency is inconclusive: 3.16 µM [inhibitor, full curve, poor fit].

For O=c1[nH]ncc(N2CCCCC2)c1Cl, which “activity change, negative = inhibition” value is on record?
The value was inactive: -1.46%.

For COC(=O)c1cc(NC(=O)/C=C/c2ccc3c(c2)OCO3)cc(C(=O)OC)c1, which Potency is on record?
The Potency was inconclusive: 1.46 µM [activator, partial curve, poor fit].

Which Potency does the source give for C/C(Cn1cnc([N+](=O)[O-])n1)=N\NC(=O)c1ccccc1F here?
The Potency was inconclusive: 3.16 µM [inhibitor, single point].

Which Potency does the source give for COCc1c(C#N)c(NCc2cc(OC)c(OC)c(OC)c2)nc(C)c1[N+](=O)[O-] here?
The Potency was inconclusive: 10 µM [inhibitor, partial curve, poor fit].

With COC(=O)c1cn(Nc2ncc(C(F)(F)F)cc2Cl)c(=O)c2ccccc12 as the molecule, how does the Potency read?
The Potency was inconclusive: 11.2 µM [inhibitor, partial curve, poor fit].

For COc1ccc(NC(=O)CN(C)C(C)C(=O)N2CCCCC2)cc1 (stereo not given), which “activity change, negative = inhibition” value is on record?
Its value is inactive: 8.31%.

Which Potency does the source give for CCOC(=O)C(/C(C)=N/NC(=O)C1CC1c1ccccc1)C(C)C (stereo not given) here?
Its Potency is active: 2.06 µM.

With O=C(Nc1ccc(F)cc1)c1ccc(CSc2ccccc2)o1 as the molecule, how does the Potency read?
The Potency was inconclusive: 10.3 µM [inhibitor, partial curve].

Which Potency does the source give for C=CCn1c(SC(C)C(=O)NCCC2=CCCCC2)nc2ccccc2c1=O (stereo not given) here?
The Potency was inconclusive: 12.6 µM [inhibitor, partial curve, poor fit].

With COc1ccc(S(=O)(=O)Nc2nc3c(s2)CCCC3)cc1 as the molecule, how does the Potency read?
The Potency was inconclusive: 35.5 µM [inhibitor, single point].

For N#Cc1cc2cc3c(cc2nc1SCC(=O)N1CCOCC1)OCCO3, which Potency is on record?
Its Potency is inconclusive: 5.62 µM [inhibitor, full curve, poor fit].

With O/N=C/c1ccc(OCc2ccccc2)c(Cl)c1 as the molecule, how does the Potency read?
The Potency was inconclusive: 0.631 µM [activator, partial curve, poor fit].

With CCn1c(C)cc(C=C2C(=O)c3ccccc3C2=O)c1C as the molecule, how does the Potency read?
The Potency was inconclusive: 3.55 µM [inhibitor, single point].

With Cn1c(=O)c(C(=O)NNC(=O)c2cccc(Cl)c2)c(O)c2ccccc21 as the molecule, how does the Potency read?
The Potency was inconclusive: 17.8 µM [inhibitor, single point].

With CN1CCN(c2nc(-c3cccnc3)nc3ccccc23)CC1 as the molecule, how does the Potency read?
Its Potency is inconclusive: 2.59 µM [activator, partial curve, poor fit].

With O=C(CSc1nnc2[nH]c(=O)cc(-c3ccccc3)n12)Nc1cc(C(F)(F)F)ccc1Cl as the molecule, how does the “activity change, negative = inhibition” value read?
Its value is inactive: -22.8% [at 46.1 µM].

With CCOc1ccc(NC(=O)CN(C)S(=O)(=O)c2cnc[nH]2)cc1 as the molecule, how does the Potency read?
Its Potency is inconclusive: 7.94 µM [activator, partial curve, poor fit].

With CC(Sc1nnc2c(n1)[nH]c1ccccc12)C(=O)NC1CCCCC1 (stereo not given) as the molecule, how does the Potency read?
Its Potency is inconclusive: 0.794 µM [inhibitor, full curve, poor fit].

Which “activity change, negative = inhibition” value does the source give for COc1ccccc1NC(=O)c1cc(S(=O)(=O)NCCC2=CCCCC2)ccc1F here?
Its value is inactive: -5.15% [at 46.1 µM].

Which Potency does the source give for COc1ccc(-n2c(O)c(C(C)=NCc3ccc4c(c3)OCO4)c(=O)[nH]c2=O)cc1 here?
Its Potency is inconclusive: 2.82 µM [inhibitor, single point].

With O=C(NCc1cccc(Cl)c1)C1CCCN(c2ncnc3onc(-c4ccc(F)cc4)c23)C1 (stereo not given) as the molecule, how does the “activity change, negative = inhibition” value read?
Its value is inactive: -18.8% [at 46.1 µM].

For O=C(COc1ccccc1Cl)NCCNC(=O)c1cccnc1, which “activity change, negative = inhibition” value is on record?
Its value is inactive: -2.6%.

For CC(NC(=O)c1ccco1)C(c1cccs1)N1CCN(c2ccccc2F)CC1 (stereo not given), which Potency is on record?
Its Potency is inconclusive: 16.4 µM [inhibitor, partial curve, poor fit].

For CCN(CC(=O)Nc1ccc(NC(C)=O)cc1)C(=O)c1cccc(Oc2ccccc2)c1, which Potency is on record?
The Potency was inconclusive: 2.82 µM [inhibitor, single point].

For CC(=O)N1CCN(c2ccc(NC(=O)c3ccc(N4CCCC4)c([N+](=O)[O-])c3)cc2Cl)CC1, which Potency is on record?
Its Potency is inconclusive: 29.1 µM [inhibitor, single point].

Which Potency does the source give for Cc1ccccc1CN1CCCN(CC(=O)Nc2ccc3c(c2)OCCO3)S1(=O)=O here?
Its Potency is inconclusive: 2.24 µM [inhibitor, full curve].
